Experimental data taken from article PMC7862700.
The list shows a part of the results, in another mix than the full data. At the low end of the ranking, values are background and their order means little.

By UniProt entry, the sequences of proteins in these tests, tags left out. Where a name states a change or a piece, a line headed by the entry shows the natural chain unless it says otherwise.
UniProt Q01892: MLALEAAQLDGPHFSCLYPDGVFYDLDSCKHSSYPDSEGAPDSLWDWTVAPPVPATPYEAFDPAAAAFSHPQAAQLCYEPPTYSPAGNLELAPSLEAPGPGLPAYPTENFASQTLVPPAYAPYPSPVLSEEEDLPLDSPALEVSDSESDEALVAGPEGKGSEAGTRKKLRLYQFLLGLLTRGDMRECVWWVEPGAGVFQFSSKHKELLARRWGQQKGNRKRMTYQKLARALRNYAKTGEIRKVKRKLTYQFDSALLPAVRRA
UniProt P41161: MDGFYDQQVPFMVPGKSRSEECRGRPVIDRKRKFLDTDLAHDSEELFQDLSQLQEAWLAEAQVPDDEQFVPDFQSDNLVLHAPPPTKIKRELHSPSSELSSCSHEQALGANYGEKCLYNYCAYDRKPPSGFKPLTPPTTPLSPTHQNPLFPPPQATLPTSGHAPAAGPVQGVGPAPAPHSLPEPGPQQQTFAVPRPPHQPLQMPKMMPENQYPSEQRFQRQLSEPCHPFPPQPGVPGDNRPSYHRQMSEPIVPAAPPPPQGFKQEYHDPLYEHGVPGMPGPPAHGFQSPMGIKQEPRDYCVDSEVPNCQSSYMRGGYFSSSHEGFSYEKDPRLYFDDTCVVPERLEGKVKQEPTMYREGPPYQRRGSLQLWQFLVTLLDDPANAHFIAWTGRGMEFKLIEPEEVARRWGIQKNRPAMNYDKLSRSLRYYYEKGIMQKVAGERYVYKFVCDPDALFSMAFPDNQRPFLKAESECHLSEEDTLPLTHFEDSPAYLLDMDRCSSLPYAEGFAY

Columns and labels:
Assay in all cases: DAPPL (digital affinity profiling via proximity ligation, sequencing)
Conditions in all cases: 10 mM Tris-HCl pH 7.5, 50 mM NaCl, 1 mM DTT, 4% glycerol, room temperature, 30 min; GST-TFs on glutathione beads, 16-mer random dsDNA library, 0.1% …; high values mean tight binding; double strand, one strand shown; scale: fold enrichment (6-mer frequency, TF over GST control)
FLI1 = biological target: T1, FLI1 (UniProt Q01543)
T1 sequence: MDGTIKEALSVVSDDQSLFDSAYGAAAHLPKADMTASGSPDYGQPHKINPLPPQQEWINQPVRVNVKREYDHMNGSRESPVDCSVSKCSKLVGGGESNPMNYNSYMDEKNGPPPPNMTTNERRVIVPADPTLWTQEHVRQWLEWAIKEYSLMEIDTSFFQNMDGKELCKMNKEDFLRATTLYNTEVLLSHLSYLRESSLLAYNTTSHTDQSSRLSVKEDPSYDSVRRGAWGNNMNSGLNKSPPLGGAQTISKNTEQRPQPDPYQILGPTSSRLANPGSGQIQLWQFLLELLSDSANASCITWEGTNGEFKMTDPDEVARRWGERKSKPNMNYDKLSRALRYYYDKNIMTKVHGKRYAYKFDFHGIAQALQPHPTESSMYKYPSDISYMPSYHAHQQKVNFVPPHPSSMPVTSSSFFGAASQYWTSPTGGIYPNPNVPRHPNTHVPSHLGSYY

EHF = biological target: T2, EHF (UniProt Q9NZC4)
T2 sequence: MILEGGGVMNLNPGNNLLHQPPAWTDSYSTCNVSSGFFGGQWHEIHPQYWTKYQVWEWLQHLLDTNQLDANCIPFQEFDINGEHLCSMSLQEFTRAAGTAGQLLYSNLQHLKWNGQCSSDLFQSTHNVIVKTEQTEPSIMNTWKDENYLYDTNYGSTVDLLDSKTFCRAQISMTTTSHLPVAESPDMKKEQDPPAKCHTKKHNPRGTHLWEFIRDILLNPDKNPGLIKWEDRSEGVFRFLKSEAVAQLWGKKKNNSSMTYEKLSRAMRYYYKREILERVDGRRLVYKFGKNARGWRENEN

SPIB = SPIB (UniProt Q01892)
ETV5 = ETV5 (UniProt P41161)
ETV2 = biological target: T3, ETV2 (UniProt O00321)
T3 sequence: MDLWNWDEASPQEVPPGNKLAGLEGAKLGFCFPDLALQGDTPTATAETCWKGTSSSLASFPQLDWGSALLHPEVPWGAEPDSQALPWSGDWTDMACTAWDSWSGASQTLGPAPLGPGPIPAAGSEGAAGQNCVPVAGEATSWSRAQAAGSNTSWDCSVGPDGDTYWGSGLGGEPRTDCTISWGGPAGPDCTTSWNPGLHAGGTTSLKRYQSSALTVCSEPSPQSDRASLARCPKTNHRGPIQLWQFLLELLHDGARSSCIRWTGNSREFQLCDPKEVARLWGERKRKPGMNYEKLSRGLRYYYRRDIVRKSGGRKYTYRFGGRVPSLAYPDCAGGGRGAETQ

ETV3L = biological target: T4, ETV3L (UniProt Q6ZN32)
T4 sequence: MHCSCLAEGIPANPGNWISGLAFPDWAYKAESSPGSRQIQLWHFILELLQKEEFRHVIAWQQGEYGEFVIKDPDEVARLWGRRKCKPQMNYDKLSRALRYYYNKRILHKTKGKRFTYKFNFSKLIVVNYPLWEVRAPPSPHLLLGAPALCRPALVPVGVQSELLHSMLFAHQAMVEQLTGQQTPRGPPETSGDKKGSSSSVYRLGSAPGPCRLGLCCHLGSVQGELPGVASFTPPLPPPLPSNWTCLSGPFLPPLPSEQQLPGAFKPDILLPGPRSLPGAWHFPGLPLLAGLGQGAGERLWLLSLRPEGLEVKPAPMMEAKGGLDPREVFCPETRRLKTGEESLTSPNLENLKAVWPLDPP

Sequence	binding signal (FLI1)	binding signal (EHF)	binding signal (SPIB)	binding signal (ETV5)	binding signal (ETV2)	binding signal (ETV3L)
CAATGA	0.95	0.963	0.929	0.962	0.966	0.92
TAGCGC	0.908	0.956	0.972	0.881	0.982	0.968
GCCAAC	0.993	0.932	0.949	0.897	0.893	0.97
GCCACC	0.846	0.968	0.973	0.873	0.838	0.929
GCGCCG	0.989	0.953	0.974	0.954	0.914	0.976
CGCCAA	1.03			1.02		0.996
CAGACT	0.95	1.05	0.976	0.991	1.04	0.984
CAGCAT	1.04	0.955	0.98	1.04	0.967	
GACTGC	1.03	0.882	0.912	0.99	0.963	
AGATTA	0.923		0.974	0.982	0.966	
GTCACC	0.9	0.891	0.837	0.925	0.994	0.889
CTAAGG	0.95	0.971	0.914	0.997	0.839	0.844
TCGGCT	0.907		0.948	0.939	0.948	0.85
GTTACC	0.985	0.982	1.14	1.06	0.897	
GCATAC	0.987	1.01	0.882	0.928	0.981	0.965
CCTTCG	1.31		1.41	1.3	1.39	
TCCTAG	1.23	1.22		1.33	1.23	
TGTCTT	1.29		1.26	1.24	1.18	
ACATGA	0.991	0.972	0.867	0.944	0.964	0.853
TGAAAG	0.973	0.942		0.925	0.989	
GTGTCC	1.03	1.08	1.13	1.16	1.19	0.951
ATGCCC	1.38			1.28		1.26
CACCGC	0.966	1.08	0.981	0.985	0.877	0.985
GCCATT	0.952	0.952	0.964	0.933	0.995	0.955
TTCAAC	1.3		1.38	1.29	1.31	
CCAGCT	0.988	1.06	0.959	0.99	0.986	

Limited to binding signal (ETV2), binding signal (ETV5) and binding signal (FLI1) (two entries from above):
Sequence	binding signal (ETV2)	binding signal (ETV5)	binding signal (FLI1)
ACATGA	0.964	0.944	0.991
TGAAAG	0.989	0.925	0.973
